Laboratory results as given in article PMC7475706.
No constants are given. Whether binding was seen depends on the method and setting. Some entries that bind do so weakly or less than the wild type. Values belong to the binder of their own block, whether it stands above or below them.

Experiments:
[1] = target: T1, ZED1 (Arabidopsis thaliana) (UniProt Q8LGB6); test: two-hybrid; ZED1 in pEG202, PBL kinase in pJG4-5, lacZ reporter pSH18-34; diploid yeast on X-gal reporter plates, 30°C, monitored 3 days; without effector, or with HopX1i or HopZ1a integrated at the HO locus (yeast three-hybrid)
T1 sequence: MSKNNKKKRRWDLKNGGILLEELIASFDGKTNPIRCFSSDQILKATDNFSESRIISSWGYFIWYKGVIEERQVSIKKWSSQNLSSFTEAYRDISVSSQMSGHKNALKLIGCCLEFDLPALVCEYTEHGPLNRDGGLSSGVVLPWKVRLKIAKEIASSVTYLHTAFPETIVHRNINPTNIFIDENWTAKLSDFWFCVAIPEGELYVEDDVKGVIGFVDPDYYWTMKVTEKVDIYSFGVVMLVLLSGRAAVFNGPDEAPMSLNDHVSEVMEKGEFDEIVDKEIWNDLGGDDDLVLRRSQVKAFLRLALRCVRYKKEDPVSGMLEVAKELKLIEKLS

[2] = target: T1, ZED1 (Arabidopsis thaliana); test: two-hybrid; quantitative liquid culture beta-galactosidase assay (ONPG); ZED1 in pEG202, SZE1 in pJG4-5; without effector or with HopZ1a, HopX1i, HopX1i C198A, HopX1d or HopX1b (HO locus integration or pBA350V)
[3] = target: T1, ZED1 (Arabidopsis thaliana); test: two-hybrid; yeast three-hybrid on X-gal reporter plates; ZED1 in pEG202, PBL kinase in pJG4-5; HopZ1a integrated at the yeast HO locus
[4] = target: T1, ZED1 (Arabidopsis thaliana); test: two-hybrid; yeast three-hybrid on X-gal reporter plates; ZED1 in pEG202, PBL kinase in pJG4-5; HopX1i integrated at the yeast HO locus

- binding [1]: binds
- binding [2]: binds
B1: SZE1 (protein, UniProt Q8L617 1-313)
chain: MGNCLSASTLPTEPNAPKSVEEGVKVFTVADLKKATNDFGNQMELGESLGYINPKTLSPAKKGVGMAVAVKKIYLANEQAFQDWLVDVEFLRHNSHPSLVKLIGYCYDRDMLFIVSEYFPNGSLGSYISRDSRPKSLPWETRLKISIGAAQCLAFLHSRKQAGLYRRYLTASKILLDSDFNARVSYFGKPKVSLDELVYTIGFSNVAPRYQYPPPEYILSGMSNMAGDVYSFGVILLKMLTGLGKDLTISAKREIKNKKYNIVEMIDPDLKNSYPLEAGRLMCELIKQCLEVDPKMRPTMQEVLDNLNAIAQI

- binding [3]: binds
B2: PBL15 (protein, UniProt Q9SY91 1-424)
chain: MRDSSTTASTKSSPLWKPFASNCCSVDDQTVFGNLSRCRPSRSEFSKNHLGPLPSFRRLSFADLSRSSSARINEDLAQTLGADLVDFQMCELKMITQSFSGNYLLGEGGFGKVYKGYVDDYLRQSLKAQPVAVKLLDIEGLQGHREWLSEVIFLGQLKHPNLVKLIGYCCEEEERVLIYEFMPRGSLENHLFRRISLSLPWATRLKIAVAAAKGLAFLHDLESPIIYRDFKTSNILLDSDFTAKLSDFGLAKMGPEGSKSHVTTRVMGTYGYAAPEYVSTGHLTTKSDVYSYGVVLLELLTGRRATEKSRPKNQQNIIDWSKPYLTSSRRLRCVMDPRLAGQYSVKAAKDTALLALQCVSPNPKDRPKMLAVVEALESLIHYKDMAVSSGHWPLSPKSQGGKVSPKVRGDHRSGRKSAPGSLRS
- binding [4]: no binding (condition: with HopX1i (without HopZ1a))
